The reference is the same well before dosing, and untreated signal decays as well.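 Fibroblast labels denote human fibroblasts, mainly primary ones from uterus (C12385, HUF), lung (H6013), bone (Hs27A), adrenal (HADF) and skin (WS1), plus mammary HMF and breast cancer-associated Hs343T. Cancer cells are basal-like or mesenchymal-like triple-negative breast cancer lines. A hit is a response shift exceeding 3x replicate standard deviation. The tissue of the other fibroblasts is not given here.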
System: HCC1143
Experiment: relative JC-1 red fluorescence (viability) vs pre-drug, coculture with fibroblast (fraction); higher = more viable cancer cells
Description: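 JC-1 labelled TNBC cells cocultured 1:1 (1,500 cells each) with CellTrace Violet stained primary or stromal fibroblasts in 384-well plates in FluoroBrite medium, treated with one of 42 anticancer drugs at 0.1, 1, 10 or 100 uM. JC-1 red fluorescence (mitochondrial integrity in cancer cells only) was read by plate reader every 8 h for 72 h. Values are normalised to each well's pre-drug value. The stock of one drug was tenfold lower, so its dose labels may be too high.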

CC[C@]1(O)C[C@@H]2CN(CCc3c([nH]c4ccccc34)[C@@](C(=O)OC)(c3cc4c(cc3OC)N(C)[C@H]3[C@@](O)(C(=O)OC)[C@H](OC(C)=O)[C@]5(CC)C=CCN6CC[C@]43[C@@H]65)C2)C1 [Vinblastine]
relative JC-1 red fluorescence
Conditions | 8 h | 16 h | 24 h | 32 h | 40 h | 48 h | 56 h | 64 h | 72 h
1 µM, coculture fibroblast: WS1 | – | – | – | – | – | – | – | – | 0.506
10 µM, coculture fibroblast: C12385 | 0.857 | 0.812 | 0.773 | 0.72 | 0.677 | 0.637 | 0.612 | 0.577 | 0.56
10 µM, coculture fibroblast: H6013 | 0.722 | 0.681 | 0.659 | 0.672 | 0.594 | 0.582 | 0.561 | 0.544 | 0.5619
10 µM, coculture fibroblast: H6019 | 0.85 | 0.795 | 0.7623 | 0.713 | 0.694 | 0.6755 | 0.636 | 0.6122 | 0.591
10 µM, coculture fibroblast: H6076 | 0.7698 | 0.849 | 0.812 | 0.7109 | 0.723 | 0.689 | 0.652 | 0.62 | 0.6074
10 µM, coculture fibroblast: H6231 | 0.816 | 0.931 | 0.868 | 0.63 | 0.777 | 0.734 | 0.709 | 0.67 | 0.632
10 µM, coculture fibroblast: HADF | 0.72138 | 0.6736 | 0.639 | 0.6609 | 0.543 | 0.512 | 0.4885 | 0.471 | 0.543
10 µM, coculture fibroblast: HCFa | 0.738 | 0.671 | 0.642 | 0.649 | 0.566 | 0.539 | 0.516 | 0.494 | 0.544
10 µM, coculture fibroblast: HCPF | 0.792 | 0.782 | 0.739 | 0.634 | 0.659 | 0.622 | 0.591 | 0.566 | 0.563
10 µM, coculture fibroblast: HHSteC | 0.795 | 0.75 | 0.721 | 0.709 | 0.629 | 0.604 | 0.575 | 0.559 | 0.571
10 µM, coculture fibroblast: HMF | 0.782 | 0.8248 | 0.775 | 0.6782 | 0.713 | 0.674 | 0.648 | 0.602 | 0.573
10 µM, coculture fibroblast: HPFa | 0.924 | 0.885 | – | 0.7643 | 0.7333 | 0.707 | 0.661 | 0.6251 | 0.607
10 µM, coculture fibroblast: HUF | 0.902 | 0.851 | 0.832 | 0.776 | 0.74 | 0.705 | 0.668 | 0.642 | 0.62
10 µM, coculture fibroblast: Hs5 | 0.7874 | 0.788 | 0.755 | 0.717 | 0.664 | 0.635 | 0.614 | 0.597 | 0.5974
10 µM, coculture fibroblast: Hs27A | 0.672 | 0.601 | 0.561 | 0.603 | 0.464 | 0.428 | 0.411 | 0.395 | 0.499
10 µM, coculture fibroblast: Hs343T | 0.84 | 0.947 | 0.916 | 0.803 | 0.87 | 0.832 | 0.781 | 0.78 | 0.732
10 µM, coculture fibroblast: WS1 | 0.8329 | 0.76551 | 0.7227 | 0.657 | 0.608 | 0.575 | 0.539 | 0.509 | 0.486
100 µM, coculture fibroblast: C12385 | 0.65 | 0.5163 | 0.389 | 0.277 | 0.174 | 0.142 | 0.109 | 0.079 | 0.0599
100 µM, coculture fibroblast: H6013 | 0.563 | 0.437 | 0.336 | 0.223 | 0.135 | 0.116 | 0.0793 | 0.0539 | 0.0264
100 µM, coculture fibroblast: H6019 | 0.813 | 0.677 | 0.569 | 0.417 | 0.296 | 0.227 | 0.159 | 0.103 | 0.0765
100 µM, coculture fibroblast: H6076 | 0.664 | 0.637 | 0.588 | 0.516 | 0.393 | 0.322 | 0.247 | 0.195 | 0.177
100 µM, coculture fibroblast: H6231 | 0.66 | 0.626 | 0.524 | 0.456 | 0.412 | 0.32 | 0.226 | 0.173 | 0.141
100 µM, coculture fibroblast: HADF | 0.567 | 0.458 | 0.3804 | 0.284 | 0.135 | 0.0968 | 0.0515 | 0.0275 | 0.015
100 µM, coculture fibroblast: HCFa | 0.652 | 0.523 | 0.445 | 0.352 | 0.24 | 0.199 | 0.141 | 0.108 | 0.0624
100 µM, coculture fibroblast: HCPF | 0.702 | 0.699 | 0.617 | 0.501 | 0.432 | 0.361 | 0.279 | 0.224 | 0.186
100 µM, coculture fibroblast: HHSteC | 0.748 | 0.647 | 0.562 | 0.456 | 0.288 | 0.23 | 0.155 | 0.119 | 0.0604
100 µM, coculture fibroblast: HMF | 0.691 | 0.712 | 0.678 | 0.597 | 0.4828 | 0.381 | 0.262 | 0.199 | 0.159
100 µM, coculture fibroblast: HPFa | 0.687 | 0.547 | 0.433 | 0.297 | 0.205 | 0.1732 | 0.12755 | 0.107 | 0.08637
100 µM, coculture fibroblast: HUF | 0.763 | 0.548 | 0.41 | 0.318 | 0.249 | 0.198 | 0.131 | 0.0947 | 0.0953
100 µM, coculture fibroblast: Hs5 | 0.6986 | 0.681 | 0.561 | 0.461 | 0.322 | 0.26 | 0.213 | 0.169 | 0.143
100 µM, coculture fibroblast: Hs27A | 0.526 | 0.455 | 0.378 | 0.335 | 0.231 | 0.227 | 0.177 | 0.149 | 0.0812
100 µM, coculture fibroblast: Hs343T | 0.73 | 0.72 | 0.633 | 0.57 | 0.459 | 0.385 | 0.273 | 0.215 | 0.17
100 µM, coculture fibroblast: WS1 | 0.676 | 0.523 | 0.381 | 0.274 | 0.193 | 0.154 | 0.114 | 0.0896 | 0.0694

From the supplement of paper PMC6078165
